# Measurements from PubChem BioAssay AID504834 (National Center for Advancing Translational Sciences (NCATS), 2011).
# The whole screen tested about 320,000 compounds, of which about 22,000 (6.9%) were called active. This list was built around the results that the source calls inconclusive (neither active nor inactive); the mix of calls is not that of the screen. Calls follow the shape of the dose curve; as a rule, active = well fitted inhibition curve with a large enough effect; inconclusive = small, poorly fitted or top-dose-only effect, or another doubt; inactive = no such curve, though single readings can be large or run the other way. Where the call is inconclusive, the potency comes from a doubtful curve fit.
# Test: Primary qHTS for delayed death inhibitors of the malarial parasite plastid, 96 hour incubation
# Conditions: P. falciparum luciferase reporter growth; series mostly up to 28.7 µM
# Method in brief: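 Parasite growth measured via integrated firefly luciferase reporter in P. falciparum. Infected erythrocytes at 2% hematocrit, 0.05% parasitemia final were treated 96 hours at 37 C under 5% CO2, and luminescence was read.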
# Potency is read from the fitted curve at half-maximal effect.
row,SMILES,Potency
1,O=C(CCNC(=O)C1CCN(S(=O)(=O)c2ccc(F)cc2)CC1)Nc1nccs1,"inconclusive: 18.5 µM [inhibitor, single point]"
2,CC(OC(=O)CNC(=O)COc1ccccc1)C(=O)N(C)Cc1ccccc1 (stereo not given),inactive
3,CN(C(=O)c1ccco1)c1ccccc1C(=O)O,inactive
4,CC1CC(C)CN(S(=O)(=O)c2cc3c4c(c2)CCN4C(=O)CC3)C1 (stereo not given),"inconclusive: 5.86 µM [inhibitor, partial curve, poor fit]"
5,Cc1cc(-c2[nH]nc3c2C(c2ccc(Cl)cc2)C(C#N)=C(N)O3)c(C)s1 (stereo not given),"inconclusive: 3.7 µM [inhibitor, full curve]"
6,COC(=O)c1sccc1NC(=O)C1CC=CCC1C(=O)O (stereo not given),"inconclusive: 9.28 µM [inhibitor, partial curve, poor fit]"
7,O=C(O)c1ccc(CSCc2ccccc2F)o1,"inconclusive: 13.1 µM [inhibitor, partial curve, poor fit]"
8,O=C(CCCOc1ccc(Cl)cc1)NCC1CCCO1 (stereo not given),inactive
9,CCOc1cc(NC(=S)NCCCN2CCOCC2)c(OCC)cc1NC(=O)C1CC1,"inconclusive: 10.4 µM [inhibitor, single point]"
10,NS(=O)(=O)c1ccc(CCNC(=O)c2cc3ccccc3oc2=O)cc1,"inconclusive: 18.5 µM [inhibitor, single point]"
11,O=C(N/N=C/c1sc(N2CCOCC2)nc1-c1ccccc1)c1cccc(S(=O)(=O)N2CCCC2)c1,"inconclusive: 10.4 µM [inhibitor, single point]"
12,CCOC(=O)c1sc(N)nc1-c1ccccc1,inactive
13,CS(=O)(=O)c1ccc2nc(NC(=O)C3CC(=O)N(c4ccccc4)C3)sc2c1 (stereo not given),"inconclusive: 0.738 µM [inhibitor, full curve]"
14,Cc1c(C(=O)OCC(=O)c2ccc3c(c2)OCCO3)oc2ccccc12,"inconclusive: 7.38 µM [inhibitor, partial curve, poor fit]"
15,CCOC(=O)N1CCN(C(=O)CSCC(=O)N=c2sc3ccccc3n2C)CC1,"inconclusive: 11.7 µM [inhibitor, single point]"
16,CCN1CCN(C(=S)Nc2cccc([N+](=O)[O-])c2)CC1,inactive
17,COC(=O)c1cc(Sc2c(Cl)cccc2Cl)ccn1,inactive
18,C=C(C)C1CC=C(C)/C(=N/Nc2ccccc2[N+](=O)[O-])C1 (stereo not given),"inconclusive: 13.1 µM [inhibitor, single point]"
19,Cc1ccc(S(=O)(=O)/N=C(/Sc2ccccc2C(=O)O)c2ccccc2)cc1,inactive
20,CC(C)(C)NC(=O)CN(C(=O)C(=O)Nc1ccc2c(c1)OCCO2)C(C)(C)C,inactive

# Sorted by length of the SMILES (descending): some entries from above.
row,SMILES,Potency
4,CC1CC(C)CN(S(=O)(=O)c2cc3c4c(c2)CCN4C(=O)CC3)C1 (stereo not given),"inconclusive: 5.86 µM [inhibitor, partial curve, poor fit]"
10,NS(=O)(=O)c1ccc(CCNC(=O)c2cc3ccccc3oc2=O)cc1,"inconclusive: 18.5 µM [inhibitor, single point]"
6,COC(=O)c1sccc1NC(=O)C1CC=CCC1C(=O)O (stereo not given),"inconclusive: 9.28 µM [inhibitor, partial curve, poor fit]"
